Laboratory results: PubChem BioAssay AID1259308 (NCATS, 2017)
Aim: 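Knock-downs that increase output of a recombinant reporter protein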 (primary screen). Cell system: human HEK293 embryonic kidney cells stably expressing firefly luciferase (HEK-CMV-Luc2-Hygro). Reagents: single siRNA against human genes, 0.8 pmol siRNA per well. Time to read-out: 72 h. Measured: 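Luciferase light (ONE-Glo) measured on one replicate plate set and viability (CellTiter-Glo) on the other, scaled to a negative control siRNA, with robust z-scores and luciferase per cell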. Scale: total luciferase, z-score: higher = more reporter protein produced. Active means: 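An siRNA counts as active if its total luciferase robust z-score exceeds 3; genes with two or more such siRNAs out of three were retested with fresh siRNAs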. Meaning of the calls: active = raised luciferase; inactive = no rise.
The whole screen tested about 59,000 reagents; shown is an unselected part. Of all reagents, about 1,510 (2.6%) are marked active. 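Calls use total luciferase alone and ignore viability, so some active siRNAs may act by altering cell number.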 A number with no mark means an inactive call. Reagents against one gene are numbered here. Further read-outs or replicates are left out here. No sequences are given here.

With knock-down of LINC01116 (long independently transcribed non-coding RNA 1116) #1 the results were total luciferase, z-score -1.8. Silencing of LINC01116 (long independently transcribed non-coding RNA 1116) #2 came out at: total luciferase, z-score -0.565. Depletion of LINC01116 (long independently transcribed non-coding RNA 1116) #3 resulted in: total luciferase, z-score 0.456. After knock-down of RTL9 (retrotransposon Gag like 9) #1, the record shows total luciferase, z-score -1.37. RTL9 (retrotransposon Gag like 9) #2 showed total luciferase, z-score -0.11. RTL9 (retrotransposon Gag like 9) #3 showed total luciferase, z-score -0.325.

PDX1 (pancreatic and duodenal homeobox 1) #1 gave total luciferase, z-score -0.299. For PDX1 (pancreatic and duodenal homeobox 1) #2, the values are total luciferase, z-score 1.99. PDX1 (pancreatic and duodenal homeobox 1) #3 showed total luciferase, z-score 1.67. POGLUT2 (protein O-glucosyltransferase 2) #1 scored total luciferase, z-score 0.725. POGLUT2 (protein O-glucosyltransferase 2) #2 scored total luciferase, z-score -0.0558. With knock-down of POGLUT2 (protein O-glucosyltransferase 2) #3, the screen gave total luciferase, z-score -1.25.

PLA2G10 (phospholipase A2 group X) #1 scored total luciferase, z-score -1.29. Against PLA2G10 (phospholipase A2 group X) #2, the values are total luciferase, z-score 2.08. Silencing of PLA2G10 (phospholipase A2 group X) #3 came out at: total luciferase, z-score 0.122. ADGRL4 (adhesion G protein-coupled receptor L4) #1 showed total luciferase, z-score 0.132. After knock-down of ADGRL4 (adhesion G protein-coupled receptor L4) #2, the record shows total luciferase, z-score 0.473. Knock-down of ADGRL4 (adhesion G protein-coupled receptor L4) #3 resulted in: total luciferase, z-score -0.22.

Knock-down of ENTPD1 (ectonucleoside triphosphate diphosphohydrolase 1) #1 resulted in: total luciferase, z-score -0.711. For ENTPD1 (ectonucleoside triphosphate diphosphohydrolase 1) #2 the deposit lists total luciferase, z-score 1.77. For ENTPD1 (ectonucleoside triphosphate diphosphohydrolase 1) #3, the values are total luciferase, z-score -0.592. For IFNA7 (interferon alpha 7) #1 the deposit lists total luciferase, z-score 0.0311. IFNA7 (interferon alpha 7) #2 scored total luciferase, z-score 3.7 (active). Against IFNA7 (interferon alpha 7) #3 the deposit lists total luciferase, z-score 0.488.

With knock-down of ABCA12 (ATP binding cassette subfamily A member 12) #1, the record shows total luciferase, z-score 0.0574. Knock-down of ABCA12 (ATP binding cassette subfamily A member 12) #2 gave: total luciferase, z-score -0.22. Depletion of ABCA12 (ATP binding cassette subfamily A member 12) #3 came out at: total luciferase, z-score 2.03. Silencing of LINC02043 (long independently transcribed non-coding RNA 2043) #1 resulted in: total luciferase, z-score -1.7. Against LINC02043 (long independently transcribed non-coding RNA 2043) #2 the deposit lists total luciferase, z-score -1.77. LINC02043 (long independently transcribed non-coding RNA 2043) #3 scored total luciferase, z-score 0.494.

Silencing of MTIF3 (mitochondrial translational initiation factor 3) #1 gave: total luciferase, z-score 0.696. MTIF3 (mitochondrial translational initiation factor 3) #2 showed total luciferase, z-score -0.693. Depletion of MTIF3 (mitochondrial translational initiation factor 3) #3 gave: total luciferase, z-score 5.2 (active). With knock-down of IL3RA (interleukin 3 receptor subunit alpha) #1 the results were total luciferase, z-score -1.57. Knock-down of IL3RA (interleukin 3 receptor subunit alpha) #2 came out at: total luciferase, z-score 0.0023. IL3RA (interleukin 3 receptor subunit alpha) #3 gave total luciferase, z-score -0.193.

Knock-down of PAN2 (poly(A) specific ribonuclease subunit PAN2) #1 came out at: total luciferase, z-score -1.2. PAN2 (poly(A) specific ribonuclease subunit PAN2) #2 scored total luciferase, z-score -0.23. Against PAN2 (poly(A) specific ribonuclease subunit PAN2) #3, the entry reads total luciferase, z-score -1.18. Against DNAJA4 (DnaJ heat shock protein family (Hsp40) member A4) #1 the deposit lists total luciferase, z-score -0.416. DNAJA4 (DnaJ heat shock protein family (Hsp40) member A4) #2 gave total luciferase, z-score 3.15 (active). DNAJA4 (DnaJ heat shock protein family (Hsp40) member A4) #3 scored total luciferase, z-score -0.157.

6 entries already listed, ordered by “total luciferase, z-score”, high to low.
ABCA12 (ATP binding cassette subfamily A member 12) #3 — total luciferase, z-score = 2.03
LINC02043 (long independently transcribed non-coding RNA 2043) #3 — total luciferase, z-score = 0.494
ABCA12 (ATP binding cassette subfamily A member 12) #1 — total luciferase, z-score = 0.0574
ABCA12 (ATP binding cassette subfamily A member 12) #2 — total luciferase, z-score = -0.22
LINC02043 (long independently transcribed non-coding RNA 2043) #1 — total luciferase, z-score = -1.7
LINC02043 (long independently transcribed non-coding RNA 2043) #2 — total luciferase, z-score = -1.77
